Experimental data from patent US6986997B1, “Method for screening using an OAT1 transporter protein” (Fuji Bio Medix Co., Ltd., priority 1997, dated 2006).

Target: T1, rat OAT1 (Rattus norvegicus, UniProt O35956)
T1 construct: with full-length OAT1 cDNA labeled with; expressed in transfected cells; host or cells: Xenopus laevis oocytes injected with in vitro transcribed cRNA
T1 sequence (O35956 1-551): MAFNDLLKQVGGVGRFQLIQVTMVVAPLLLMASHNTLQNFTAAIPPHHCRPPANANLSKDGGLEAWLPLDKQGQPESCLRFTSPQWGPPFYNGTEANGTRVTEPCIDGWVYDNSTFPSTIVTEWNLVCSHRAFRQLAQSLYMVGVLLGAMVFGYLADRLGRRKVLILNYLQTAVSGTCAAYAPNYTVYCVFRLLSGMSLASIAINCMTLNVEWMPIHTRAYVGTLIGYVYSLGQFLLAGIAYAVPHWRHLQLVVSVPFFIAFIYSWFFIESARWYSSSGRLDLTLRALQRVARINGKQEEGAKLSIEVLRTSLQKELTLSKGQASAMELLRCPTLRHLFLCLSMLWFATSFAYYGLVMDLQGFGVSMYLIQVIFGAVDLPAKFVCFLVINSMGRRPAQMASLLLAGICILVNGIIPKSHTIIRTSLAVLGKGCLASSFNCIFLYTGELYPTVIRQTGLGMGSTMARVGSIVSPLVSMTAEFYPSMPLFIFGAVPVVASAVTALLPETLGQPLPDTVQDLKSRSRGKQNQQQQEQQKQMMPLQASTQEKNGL
Assay: Cis-inhibition of 14C-PAH uptake in oocytes injected with rat OAT1 cRNA
Format: cell-based
Settings: probe 14C-PAH (p-aminohippurate), 2 μM 14C-PAH, 2 mM non-labeled substance, ND96 solution, read-out: inhibition of OAT1-mediated 14C-PAH uptake

Question: How did the inhibition at 1 h, 2 mM turn out when NS(=O)(=O)c1cc(C(=O)O)c(NCc2ccco2)cc1Cl [furosemide] was run?
Answer: The inhibition at 1 h, 2 mM was over 85%.
